Measurements taken from PubChem BioAssay AID2685 (National Center for Advancing Translational Sciences (NCATS), 2010).
In all, about 320,000 compounds went through this assay and about 2,100 (0.66%) were called active. Inconclusive results, whose numbers are uncertain, are shown with a selection of clear calls. Calls come from the whole dose curve; as a rule, active = well fitted inhibition curve with a large enough effect in the signal ratio, with a control signal flat (not every such curve was filed as active); inconclusive = small, poorly fitted or top-dose-only effect, or effect the other way, or a change in a side signal; inactive = flat fitted curve, though single readings scatter; the % refers to the signal ratio. Potencies beside an inconclusive call are fits to weak or partial responses and may not hold up.

Assay: qHTS Assay for Lipid Storage Modulators in Drosophila S3 Cells
Conditions: BODIPY lipid droplet fluorescence, 18-24 h, cells fed with added oleic acid; lipid storage change, negative = inhibition: at 46.1 µM (top of the series) unless noted
How it was run: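 Drosophila S3 cells loaded with oleic acid (400 uM, as added) and compounds at several concentrations; lipid droplets imaged by 488-nm laser-scanning cytometry, 500–530 nm intensity and object ratio to cell channel. Percent activity normalized to 20 uM Triacsin C.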
% is set by controls: 0 for no effect and ±100 for the full control effect; potency is the fitted concentration of half-maximal effect.

SMILES	Potency	lipid storage change, negative = inhibition
Cc1ccccc1NC(=O)c1onc2c1CCCC2	active: 25.9 µM	
CCS(=O)(=O)N1CCN(S(=O)(=O)c2ccccc2)CC1		inconclusive: -177% [cytotoxic]
CCC(=O)N(CCc1ccc(OC)c(OC)c1)Cc1cc2ccc(C)cc2n2nnnc12	inconclusive: 1.46 µM [falling, full curve, poor fit]	
CCN1CCn2c3c(c4cc(Cl)ccc42)CCCC31 (stereo not given)		inconclusive: -11.1%
COC(=O)COc1ccc(S(=O)(=O)N2CCCCC2)cc1[N+](=O)[O-]		inconclusive: 3.88%
CC(NC(=O)/C=C/c1cnc2ccccc2n1)C12CC3CC(CC(C3)C1)C2 (stereo not given)		inconclusive: -15.4%
Cc1cc(=O)oc2c3c(cc(OCC(=O)NC(Cc4ccc(Cl)cc4)C(=O)O)c12)OC(C)(C)CC3 (stereo not given)		inconclusive: 10%
O=[N+]([O-])c1ccc(Nc2ccccc2F)nc1		inconclusive: -19.1%
Cn1cnc([N+](=O)[O-])c1SCC(=O)NN		inconclusive: 9.38%
CCOc1ccc(CNS(=O)(=O)c2c(C(=O)N3CCCC3)c(C)n(C)c2C)cc1OC	inconclusive: 29.1 µM [activator, single point]	
Cc1ccc(C)c(-n2c(Cc3cc(=O)[nH]c(=O)[nH]3)nnc2SCC(=O)NCC2CCCO2)c1 (stereo not given)		inconclusive: -12.9%
O=C(COC(=O)c1ccccc1Nc1ccccc1)NCc1ccco1	inconclusive: 6.51 µM [cytotoxic, single point]	
CCOc1ccc(-n2nnnc2SCC(=O)Nc2cccc(O)c2)cc1		inconclusive: -20.1%
CC(Sc1nc2ccccc2s1)C(=O)c1c(N)n(C)c(=O)n(C)c1=O (stereo not given)		inconclusive: -4.46% [at 9.22 µM]
CC(C)CCn1c(=O)c2ccccc2n2c(CCC(=O)NCC3CCCO3)nnc12 (stereo not given)		inconclusive: -90.8%
CCOc1ccc(NC(=O)CN(C)C(=O)c2ccc(NC3CC3)c([N+](=O)[O-])c2)cc1OCC		inconclusive: 31.2%
COC(=O)C1=C(C(=O)OC)[C@@H]2N(Cc3ccccc3)c3ccccc3[C@@]23C[C@@H](C(=O)OC)N(C(=O)c2ccc(Br)cc2)C3=N1	inconclusive: 0.146 µM [activator, full curve]	
CN(Cc1cnn(C)c1)C(=O)c1cc(COc2c(F)cccc2F)on1		inactive: 13.2%
CN(C)CCNc1nc2sc3c(c2c(=O)n1CCc1ccccc1)CCCCC3		inconclusive: -21.8%
Cc1ccc(S(=O)(=O)NC(C)C(=O)Nc2ccc(C(N)=O)cc2)cc1 (stereo not given)	inconclusive: 13 µM [falling, partial curve, poor fit]	
Cc1cccc(NC(=S)N2CCC(O)CC2)c1C		inconclusive: -6.86%
CCOC(=O)CNc1nc(Cl)c(C#N)s1		inconclusive: 30.7%
CC1CC(C)CN(C(=O)c2cc(-c3ccncc3)nc3ccccc23)C1 (stereo not given)	inconclusive: 2.06 µM [activator, full curve]	
CCC(C(=O)NCc1cccc(C)c1)n1nc(C)c2c(C)n(-c3ccccc3)nc2c1=O (stereo not given)	inconclusive: 2.31 µM [falling, partial curve, poor fit]	
O=C(CSc1nc2ccccc2o1)N/N=C/c1ccc(O)c(O)c1		inconclusive: -13.1%

Compounds from the list above that contain an aryl methoxy group:
SMILES	Potency	lipid storage change, negative = inhibition
CCC(=O)N(CCc1ccc(OC)c(OC)c1)Cc1cc2ccc(C)cc2n2nnnc12	inconclusive: 1.46 µM [falling, full curve, poor fit]	
CCOc1ccc(CNS(=O)(=O)c2c(C(=O)N3CCCC3)c(C)n(C)c2C)cc1OC	inconclusive: 29.1 µM [activator, single point]	

Later entries

SMILES	Potency	lipid storage change, negative = inhibition
Cc1cc(C(=O)C(=O)O)c(C)n1-c1ccc(Cl)cc1	inconclusive: 6.51 µM [falling, single point]	
CCOC(=O)c1cnc2nc(N3CCOCC3)nn2c1N		inconclusive: -11.7%
O=c1c2ccccc2c(/C=N/c2ncn[nH]2)c(O)n1Cc1ccccc1		inconclusive: 27.8%
COc1ccc(OC(C)C(=O)N2CCN(c3ccccn3)CC2)cc1 (stereo not given)	inconclusive: 16.4 µM [activator, single point]	
Cc1nn(-c2ccccc2)c(C)c1/C=N\NS(=O)(=O)c1ccc(Cl)cc1	inconclusive: 18.4 µM [rising, partial curve]	
CCN(CC)c1ccc(/C=N/NC(=O)OC)c(O)c1	inconclusive: 1.84 µM [falling, partial curve, poor fit]	
CC(=O)c1c(C)nc(-c2ccccc2)nc1NC(=O)C(C)C	inconclusive: 0.0046 µM [rising, full curve]	
Nc1nnc(SC2CC(=O)N(c3ccccc3)C2=O)s1 (stereo not given)	inconclusive: 8.2 µM [activator, partial curve]	
Cc1ccc2c(CC(=O)O)coc2c1		inconclusive: -1.86%
O=C(NCC1CCN(Cc2cccc(Cl)c2)CC1)C1CCCN(c2ncnc3c2nc2n3CCCCC2)C1 (stereo not given)		inconclusive: 32.7%
Cc1ccc(C(=O)O/N=C/c2c(N3CCOCC3)n(C)c3ccccc23)cc1	inconclusive: 14.6 µM [falling, partial curve]	
CCOC(=O)c1c(-c2ccc(OC)cc2)csc1/N=C/C1C(=O)CCCC1=O	inconclusive: 29.1 µM [falling, single point]	
Cc1c(Cl)cccc1NC(=O)Nc1cnccn1	inconclusive: 14.6 µM [falling, single point]	
COc1cc(NC(=O)c2ccc(F)cc2)c(OC)cc1NC(=O)CN1CCCCC1		inconclusive: 24.7%
Cn1c(=O)n(C)c2cc(NS(=O)(=O)c3ccccc3[N+](=O)[O-])ccc21		inconclusive: 75.9%
COc1cccc(/C=N/NC(=S)NC2CC3CCC2C3)c1OC (stereo not given)		inconclusive: 10.6%
CCc1noc(C)c1C(=O)N1CCC(CCC(=O)Nc2cccc(OC)c2)CC1		inconclusive: -5.66%
Cn1c(Cc2cccc3ccccc23)nnc1SCC(=O)N1CCN(c2cccc(Cl)c2)CC1		inconclusive: 144%
COC(=O)c1sccc1NC(=O)CSc1ccccc1NC(=O)CNC(C)C		inconclusive: -39% [cytotoxic] [at 0.00295 µM]
Cc1ccccc1N1CCN(CCCN2C(=O)C3CCCCN3C2=O)CC1 (stereo not given)	inconclusive: 0.116 µM [falling, full curve, poor fit]	
Cc1cnc(C(=O)OCC(=O)NC2CCCCCC2)cn1		inconclusive: -43.3%
O=C(CCc1ccc(O)c(O)c1)N/N=C/c1ccc2c(c1)OCO2		inconclusive: -84.3%
O=C(NC(c1ccccc1)c1ccccc1)N1CCN(CCO)CC1		inconclusive: 37.2%
COC(=O)c1sccc1NC(=O)c1cnc2cc(C)nn2c1C		inconclusive: 26.8%
COc1ccc(-c2nn(-c3ccccc3)cc2/C=C\C(=O)Nc2ccc(C(=O)O)cc2)cc1		inconclusive: -4.64%

SMILES	Potency	lipid storage change, negative = inhibition
CC(C)(C)c1ccc(OCCC(=O)Nc2cccc(S(=O)(=O)N3CCCC3)c2)cc1		inconclusive: -47%
Cc1ccc(-c2c(NCCc3ccccc3)c(=O)c2=O)cc1		inconclusive: 8.29%
O=C(NC1CCCCC1)c1ccc(-n2cnnn2)cc1	inconclusive: 0.651 µM [falling, full curve]	
C[C@]12C=CC(=O)C=C1CCC1C3CC[C@](O)(C(=O)CO)[C@@]3(C)CC3OC312 (stereo not given in full)		inconclusive: -1.06%
CCOc1ccc(OCC)c(NC(=O)C2CCN(S(=O)(=O)c3cccnc3)CC2)c1	inconclusive: 0.58 µM [rising, full curve]	
CC(=O)Nc1ccccc1/C=C/c1ccc2c(C)cc(C)c(O)c2n1		inactive: 14.1%
Cc1ccc(S(=O)(=O)N2CCN(CCOc3ccccc3)CC2)cc1		inconclusive: -42%
CCN(CC)c1nc2c(c(=O)[nH]c(=O)n2C)n1Cc1ccccc1Cl		inconclusive: 154%
Cc1ccc(NC(=O)COC(=O)c2ccnn2C)cc1		inconclusive: 68.7%
O=C(Cc1cccs1)Nc1ccc(S(=O)(=O)N2CCCC2)cc1		inconclusive: -25.4%
C/C(CCc1ccco1)=N/NC(=O)CCC(=O)Nc1ccc(Br)cc1	inconclusive: 29.1 µM [activator, single point]	
COc1cccc(NC(=O)CN(C)C(=O)CCCNC(=O)c2ccc(Cl)cc2)c1		inconclusive: -2.02%
COc1cccc(N2CCN(S(=O)(=O)c3ccc4c(c3)NC(=O)CS4)CC2)c1		inconclusive: 49.9%
O=C(COC(=O)c1cc([N+](=O)[O-])ccc1N1CCOCC1)NCCc1ccccc1	inconclusive: 25.9 µM [falling, single point]	
Cc1ccc(C(=O)/C=C/Nc2ccc([N+](=O)[O-])cc2Br)cc1		inconclusive: 21.9%
O=C(Cn1ccccc1=O)Nc1ccc(Cl)c(S(=O)(=O)N2CCCCC2)c1		inconclusive: 25.4%
O=C1CC2(CCN(C(=O)COc3ccc(Cl)cc3)CC2)Oc2ccccc21	inconclusive: 2.59 µM [rising, full curve]	
COc1cc(NC(=S)Nc2ccccn2)c(OC)cc1Cl		inconclusive: 21.8%
COc1ccccc1NC(=O)c1ccc(N2CC3CC(C2)c2cccc(=O)n2C3)c(NC(=O)c2cccnc2)c1 (stereo not given)		inconclusive: -30.1%
N#Cc1cnc2ncnn2c1-c1ccccc1		inconclusive: 147%
COc1cc(C(=O)NCC(c2ccco2)N2CCCC2)ccc1OCc1c(C)noc1C (stereo not given)		inconclusive: 79.4%
Cc1ccc2sc(N3CCN(C(=O)c4ccc([N+](=O)[O-])o4)CC3)nc2c1C	inconclusive: 1.3 µM [cytotoxic, full curve, poor fit]	
CCOc1ccc(NC(=S)NC(=O)c2c(Cl)c(C)nn2C)c([N+](=O)[O-])c1		inconclusive: 15.4%
Cc1ccc(C)c2[nH]c(=O)c(CN(CCN3CCOCC3)Cc3nnnn3CC3CCCO3)cc12 (stereo not given)		inconclusive: 13.4%
CCOCCn1c(=O)c2c(nc3n2CC(C)CN3CCc2ccccc2)n(C)c1=O (stereo not given)		inconclusive: -60.4%
